# Values from PubChem BioAssay AID1224830 (NIAID, 2016).
# Purpose: 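Genes whose knock-down alters the TNF-alpha reporter response to LPS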 (primary screen)
# System: human THP-1 monocytic leukaemia cells, TNF dual-luciferase reporter clone, PMA-differentiated to macrophage-like cells
# Reagents: siRNA pool against human genes, 50 nM
# Timing: LPS for 4 h, given about 3 days after siRNA transfection
# Challenge: bacterial LPS (TLR4 ligand), 10 ng/ml
# Measurement: 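TNF firefly reporter luminescence divided by renilla, normalised to the plate median, then turned into a robust z-score for each replicate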
# Reading the numbers: TNF reporter robust z-score: higher = stronger TNF reporter response to LPS
# Active means: 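Each well counts as active if its z-score is over 2.8 or under -1.5; controls are left without a call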
# This is an unselected part of about 18,000 reagents. Of all reagents, about 2,900 (16%) were called active. 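Calls are made per well; low scores hint the gene aids the LPS response, high scores that it dampens it.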 Repeated entries: four replicate wells of each siRNA pool.
Gene,TNF reporter robust z-score,Outcome
MT2A,-1.43,inactive
MT2A,-0.82,inactive
MT2A,-0.75,inactive
MT2A,-1.16,inactive
AKR7A2,-0.52,inactive
AKR7A2,1,inactive
AKR7A2,-0.64,inactive
AKR7A2,0.03,inactive
ITGB8,2,inactive
ITGB8,0.81,inactive
ITGB8,0.17,inactive
ITGB8,0.06,inactive
BTBD7,-1,inactive
BTBD7,-0.92,inactive
BTBD7,-1.01,inactive
BTBD7,-0.64,inactive
MASP2,0.55,inactive
MASP2,1.47,inactive
MASP2,1.05,inactive
MASP2,0.54,inactive
EPPIN,0.41,inactive
EPPIN,1.23,inactive
EPPIN,-0.24,inactive
EPPIN,2.89,active
FERRY3,,inactive
FERRY3,-0.22,inactive
FERRY3,-0.43,inactive
FERRY3,-0.72,inactive
SCRT1,,inactive
SCRT1,0.31,inactive
SCRT1,0.2,inactive
SCRT1,0.09,inactive
TRIB3,0.01,inactive
TRIB3,-0.45,inactive
TRIB3,-0.31,inactive
TRIB3,-1.22,inactive
RGS8,-0.81,inactive
RGS8,0.27,inactive
RGS8,-0.35,inactive
RGS8,-0.79,inactive
TTLL13,-1.06,inactive
TTLL13,-0.59,inactive
TTLL13,0.77,inactive
TTLL13,0.73,inactive
MAGEC2,-1.2,inactive
MAGEC2,-0.94,inactive
MAGEC2,-1.28,inactive
MAGEC2,-1.01,inactive
SUGP1,0.27,inactive
SUGP1,-0.36,inactive
SUGP1,-1.34,inactive
SUGP1,0.16,inactive
A1CF,-0.26,inactive
A1CF,0.81,inactive
A1CF,0.28,inactive
A1CF,1.11,inactive
SOWAHA,1.65,inactive
SOWAHA,2.78,inactive
SOWAHA,3.07,active
SOWAHA,3.14,active
ZNF213,-0.12,inactive
ZNF213,-0.08,inactive
ZNF213,0.01,inactive
ZNF213,0.2,inactive
ZNF676,1,inactive
ZNF676,0.22,inactive
ZNF676,0.66,inactive
ZNF676,0.46,inactive
STAG3L2,0.24,inactive
STAG3L2,0.32,inactive
STAG3L2,0.11,inactive
STAG3L2,0.27,inactive
FBXL6,0.77,inactive
FBXL6,0.3,inactive
FBXL6,0.12,inactive
FBXL6,0.53,inactive
XPNPEP3,-0.41,inactive
XPNPEP3,0.18,inactive
XPNPEP3,0.01,inactive
XPNPEP3,0.91,inactive
COQ3,-0.59,inactive
COQ3,-0.26,inactive
COQ3,-0.85,inactive
COQ3,-0.67,inactive
LMTK3,-1.19,inactive
LMTK3,-0.81,inactive
LMTK3,-1.17,inactive
LMTK3,-0.35,inactive
CAMSAP2,-1.25,inactive
CAMSAP2,-1.69,active
CAMSAP2,-0.89,inactive
CAMSAP2,-1.08,inactive
MARCHF5,1.82,inactive
MARCHF5,0.51,inactive
MARCHF5,-2.2,active
MARCHF5,-0.81,inactive
SCIN,-0.48,inactive
SCIN,-0.68,inactive
SCIN,-1.19,inactive
SCIN,0.32,inactive
UBE2Z,-0.19,inactive
UBE2Z,-0.57,inactive
UBE2Z,-0.35,inactive
UBE2Z,-1.19,inactive
TGFBR3,-0.16,inactive
TGFBR3,-0.03,inactive
TGFBR3,-0.92,inactive
TGFBR3,1.12,inactive
OIT3,-0.35,inactive
OIT3,-2.25,active
OIT3,-0.75,inactive
OIT3,-0.18,inactive

5 entries already listed, sorted by “TNF reporter robust z-score”, high to low:
Gene,TNF reporter robust z-score,Outcome
TGFBR3,1.12,inactive
OIT3,-0.35,inactive
OIT3,-0.75,inactive
TGFBR3,-0.92,inactive
OIT3,-2.25,active
